Test results reported in patent US20060088535.

Experiments:
[1] = tested on: T1, ApCREB-2 (Aplysia californica); assay: SELEX; conditions: 13 cycles; 150 or 400 mM KCl; present in each of 48 clones; purified recombinant protein; protein details: 6His N-terminal
T1 sequence (limits assumed): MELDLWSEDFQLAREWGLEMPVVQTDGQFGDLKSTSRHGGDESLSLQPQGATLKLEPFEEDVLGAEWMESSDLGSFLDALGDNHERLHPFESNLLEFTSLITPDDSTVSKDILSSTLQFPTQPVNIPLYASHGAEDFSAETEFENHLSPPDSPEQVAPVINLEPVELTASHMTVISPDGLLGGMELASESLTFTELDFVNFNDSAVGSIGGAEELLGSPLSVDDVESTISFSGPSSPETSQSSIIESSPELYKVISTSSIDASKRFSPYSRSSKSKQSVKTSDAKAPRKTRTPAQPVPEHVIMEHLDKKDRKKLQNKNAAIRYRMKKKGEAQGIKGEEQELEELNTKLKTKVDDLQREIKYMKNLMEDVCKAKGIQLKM

[2] = target: T2, ApC/EBP (Aplysia californica) (UniProt A0ABM1A6Q8); assay: SELEX; conditions: 13 cycles; 150 or 400 mM KCl; present in each of 48 clones; purified recombinant protein
T2 sequence (looked up, limits assumed): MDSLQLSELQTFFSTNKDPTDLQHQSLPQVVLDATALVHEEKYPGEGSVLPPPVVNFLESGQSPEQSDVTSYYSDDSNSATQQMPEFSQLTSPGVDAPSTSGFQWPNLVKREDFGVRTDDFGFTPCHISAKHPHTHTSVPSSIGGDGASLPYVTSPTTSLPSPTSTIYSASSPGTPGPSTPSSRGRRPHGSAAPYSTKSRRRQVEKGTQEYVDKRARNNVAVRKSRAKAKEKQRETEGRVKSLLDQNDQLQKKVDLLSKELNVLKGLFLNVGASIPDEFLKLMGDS

With “AGTATTGCGTCATC (double strand) [BS1 selected sequence]” the selection result [1] was “selected”.
In the case of “ACTATTGCGCAATC (double strand) [BS2 selected sequence]”, the selection result [2] is reported as “selected”.

For at least one entry, the source does not settle the construct or the ends of the probe. Tags and fusion partners may be left off the protein sequences shown.
